In article PMC12627648:
No constants are given. Whether binding was seen depends on the method and setting. Binding seen in cells or lysates may run through a third protein. These calls come from enrichment with a bait or labelling near it, and not all partners need be listed.

Protein sequences, listed by entry. Tags and fused reporters are not part of them. Residues count along the entry.
UniProt Q9NZC2, residues 19-230: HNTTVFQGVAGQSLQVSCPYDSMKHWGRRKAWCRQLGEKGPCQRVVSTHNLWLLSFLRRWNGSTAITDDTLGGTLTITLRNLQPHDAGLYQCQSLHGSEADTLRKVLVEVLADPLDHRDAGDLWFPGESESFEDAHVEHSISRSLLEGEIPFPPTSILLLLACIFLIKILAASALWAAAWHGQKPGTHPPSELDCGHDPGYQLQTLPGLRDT
UniProt P42224: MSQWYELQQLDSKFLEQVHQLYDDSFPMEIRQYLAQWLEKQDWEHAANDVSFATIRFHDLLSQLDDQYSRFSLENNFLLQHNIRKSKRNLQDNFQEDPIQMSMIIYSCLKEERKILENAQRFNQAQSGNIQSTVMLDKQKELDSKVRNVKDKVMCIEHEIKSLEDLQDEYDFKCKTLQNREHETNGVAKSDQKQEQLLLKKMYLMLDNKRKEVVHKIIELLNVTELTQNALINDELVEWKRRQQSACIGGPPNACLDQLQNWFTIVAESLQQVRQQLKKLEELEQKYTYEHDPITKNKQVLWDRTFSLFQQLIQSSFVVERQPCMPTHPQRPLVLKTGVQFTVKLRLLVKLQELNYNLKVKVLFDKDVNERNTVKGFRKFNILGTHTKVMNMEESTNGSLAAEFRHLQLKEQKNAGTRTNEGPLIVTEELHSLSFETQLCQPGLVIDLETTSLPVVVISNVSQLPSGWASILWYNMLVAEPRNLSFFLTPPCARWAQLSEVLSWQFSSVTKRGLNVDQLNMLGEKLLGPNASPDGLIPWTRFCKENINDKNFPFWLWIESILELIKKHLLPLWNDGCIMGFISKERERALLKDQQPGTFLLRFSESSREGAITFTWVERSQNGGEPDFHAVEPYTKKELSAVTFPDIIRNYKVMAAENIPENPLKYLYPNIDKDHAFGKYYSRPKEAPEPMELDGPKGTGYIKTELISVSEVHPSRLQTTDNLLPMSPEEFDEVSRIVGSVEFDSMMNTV

Biological target: triggering receptor expressed on myeloid cells 2 (TREM2), endogenous in TAMs (human (endogenous in THP-1-induced TAMs)) (UniProt Q9NZC2)
Assay: affinity purification with mass spectrometry; anti-TREM2 antibody immunoprecipitates from TAMs, separated by SDS-PAGE, gel slices hydrolysed, Orbitrap Elite, search against UniProt

binding: binds
Substance: signal transducer and activator of transcription 1 (STAT1), endogenous in TAMs (from UniProt P42224 1-750)
